{
  "source": "PubChem BioAssay AID488821",
  "about": "(National Center for Advancing Translational Sciences (NCATS), 2010)",
  "note": "This list was built around the results that the source calls inconclusive (neither active nor inactive); the mix of calls is not that of the screen. Potencies of inconclusive entries are doubtful fits and often do not repeat. The source made the active and inactive calls. The call rests on the fitted dose curve; in most records, active means well fitted inhibition curve with a large enough effect; inconclusive means small, poorly fitted or top-dose-only effect, or effect the other way; inactive means flat fitted curve, though single readings scatter.",
  "data": [
    {"assay": "Counterscreen Assay for Enhancers of SMN2 Splice Variant Expression: Modulation of SMN1 Expression for Further Probe SAR", "conditions": "HEK293 SMN1-luciferase reporter, luminescence, 30-36 h", "source_text": "NIH Chemical Genomics Center [NCGC] NIH Molecular Libraries Probe Production centers Network [MLPCN] MLPCN Grant: R03 MH084179-01 Assay Submitter (PI): Elliot Androphy NCGC Assay Overview: Spinal muscular atrophy (SMA) is caused by insufficient levels of the survival motor neuron protein SMN. The SMN locus on chromosome 5q13 contains two inverted copies of SMN called SMN1 and SMN2 which are 99% identical at the amino acid level. SMN1 is a fully functional protein and SMN2 skips exon 7 90% of the time. Skipping of exon 7 produces non-functional protein product. 10% of the SMN2 protein includes exon 7 and is fully functional. In the SMA disease state, mutations in the SMN1 locus are the cause of the disease state. Because only 10% of SMN2 is of the fully functional form, it is not sufficient to overcome the deficiency produced by the loss of the SMN1 product. A therapy that either increases the amount of SMN2 product made increases the inclusion of exon 7 has been proposed for the treatment of SMA. We have designed an assay to identify small molecules that can increase the amount of functional SMN2 product by appending a luciferase reporter gene after the native SMN2 gene, such that inclusion of exon 7 in the expressed product places the luciferase sequence in frame, thus generating functional luciferase enzyme. As a counterscreen for nonspecific modulators of expression, we have run compounds through a similar assay that measures expression of an SMN1-luciferase chimera.\nNCGC Assay Protocol Summary: This screen utilizes a luciferase reporter gene assay, combining the promoter with the major portion of the native SMN1 cDNA (exons 1 -7, intron 8 , exon 8 fused to luciferase) stably expressed in HEK293 cells. Compounds that increase luciferase signal presumably enhance expression of the functional SMN1 splice variant. Passaging media contained DMEM w/ glutamax (+phenol red) 10% FCS, 1x pen/strep, 200 ug/ml hygro, 1x sodium pyruvate. Assay media contained DMEM w/ glutamax (-phenol red) 10% FCS, 1x pen strep, 1x pyruvate Sequence, Parameter, Value, Description (1) Cells, 5 uL, 2000 cells/well, 1536 TC treated White solid bottom plate (2) Time, 10-12 hours, 37C 5% CO2 (3) Compound, 23 nl, MLSMR Library (4) Control Compound, 23 nL, Sodium butyrate st 4.5mM (final) conc (5) Time, 30-36 hours, 37C 5% CO2 (6) Reagent, 3 ul, One Glo (TM) from Promega (7) Time, 5-15 minutes, Room temp (8) Detector, Viewlux: luminescent read, 60 second integration, high speed 2x binning Keywords: Spinal muscular atrophy, SMA, SMN2, high throughput screening, MLSMR, MLPCN, NIH Roadmap, qHTS and NCGC", "values": [
      {"smiles": "NC(=O)C1CCN(c2ncc(-c3cccc(N4CCCCC4)c3)s2)CC1", "Potency": "inactive"},
      {"smiles": "CN(C)c1cccc(-c2ncnc(N3CCC(C(N)=O)CC3)n2)c1", "Potency": "inconclusive: 122 µM [inhibitor, single point]"},
      {"smiles": "O=S(=O)(c1ccccc1)N1CCN(c2nc(-c3ccc(Br)cc3)cs2)CC1", "Potency": "inconclusive: 30700 µM [inhibitor, partial curve, poor fit]"},
      {"smiles": "NC(=O)C1CCN(c2ncnc(-c3ccc4c(c3)OCCCO4)n2)CC1", "Potency": "inconclusive: 61.4 µM [inhibitor, partial curve, poor fit]"},
      {"smiles": "NC(=O)C1CCN(c2nc(-c3ccc(Cl)cc3)cs2)CC1", "Potency": "inconclusive: 77.2 µM [inhibitor, partial curve, poor fit]"},
      {"smiles": "NC(=O)C1CCN(c2nc(-c3cccc([N+](=O)[O-])c3)cs2)CC1", "Potency": "inactive"},
      {"smiles": "CSc1ccc(-c2cnc(N3CCC(C(N)=O)CC3)s2)cc1", "Potency": "active: 0.972 µM"},
      {"smiles": "CC(C)(C)OC(=O)NC1CCN(c2nc(-c3ccc(Br)cc3)cs2)CC1", "Potency": "inactive"},
      {"smiles": "COc1ccc(-c2csc(N3CCC(C(N)=O)CC3)n2)cc1OC", "Potency": "inconclusive: 15.4 µM [activator, full curve, poor fit]"},
      {"smiles": "NC(=O)C1CCN(c2ncc(-c3cccc(F)c3)s2)CC1", "Potency": "inconclusive: 38.7 µM [inhibitor, partial curve, poor fit]"},
      {"smiles": "NC(=O)C1CCN(c2nc(-c3ccccc3)cs2)CC1", "Potency": "inactive"},
      {"smiles": "NC(=O)C1CCN(c2nccc(-c3ccc4c(c3)OCCCO4)n2)CC1", "Potency": "inconclusive: 61.4 µM [inhibitor, partial curve, poor fit]"},
      {"smiles": "CN(C)c1cccc(-c2nc(N3CCC(C(N)=O)CC3)ncc2F)c1", "Potency": "inconclusive: 19.4 µM [inhibitor, partial curve]"},
      {"smiles": "COc1cccc(-c2csc(N3CCC(C(N)=O)CC3)n2)c1", "Potency": "inconclusive: 38.7 µM [inhibitor, partial curve, poor fit]"},
      {"smiles": "NC(=O)C1CCN(c2nc(-c3ccc(N4CCCCC4)nc3)cs2)CC1", "Potency": "inconclusive: 97.2 µM [inhibitor, partial curve, poor fit]"},
      {"smiles": "NC(=O)C1CCN(c2nc(-c3cccc4sc5ccccc5c34)cs2)CC1", "Potency": "inconclusive: 77.2 µM [inhibitor, single point]"},
      {"smiles": "CC(C)Oc1cccc(-c2csc(N3CCC(C(N)=O)CC3)n2)c1", "Potency": "inconclusive: 48.7 µM [inhibitor, partial curve, poor fit]"},
      {"smiles": "O=C(C1CCN(c2nc(-c3ccc(Br)cc3)cs2)CC1)N1CCNCC1", "Potency": "inactive"},
      {"smiles": "NC(=O)C1CCN(c2nc(-c3cccc(F)c3)cs2)CC1", "Potency": "inactive"},
      {"smiles": "O=C(c1ccccc1)N1CCN(c2nc(-c3ccc(Br)cc3)cs2)CC1", "Potency": "inconclusive: 122 µM [inhibitor, partial curve, poor fit]"},
      {"smiles": "COc1cc(-c2csc(N3CCC(C(N)=O)CC3)n2)cc(OC)c1OC", "Potency": "inconclusive: 12.2 µM [activator, full curve, poor fit]"},
      {"smiles": "NC(=O)C1CCN(c2ncc(-c3ccc(Br)cc3)s2)CC1", "Potency": "inconclusive: 24.4 µM [inhibitor, partial curve, poor fit]"},
      {"smiles": "O=C(Nc1ccccc1)C1CCN(c2ncc(-c3ccc4c(c3)OCCCO4)s2)CC1", "Potency": "active: 0.487 µM"},
      {"smiles": "NC(=O)C1CCN(c2nc(-c3ccc(-c4ccccc4)cc3)cs2)CC1", "Potency": "inconclusive: 38.7 µM [inhibitor, partial curve, poor fit]"},
      {"smiles": "NC(=O)C1CCN(c2ncc(Br)s2)CC1", "Potency": "inactive"},
      {"smiles": "CCOC(=O)C1CCN(c2nc(-c3ccc(Br)cc3)cs2)CC1", "Potency": "inconclusive: 61.4 µM [inhibitor, single point]"},
      {"smiles": "CN(C)c1cccc(-c2cnc(N3CCC(c4ncc[nH]4)CC3)s2)c1", "Potency": "inconclusive: 48.7 µM [inhibitor, partial curve]"},
      {"smiles": "NC(=O)C1CCN(c2nc(-c3ccc4c(c3)OCO4)cs2)CC1", "Potency": "inconclusive: 38.7 µM [inhibitor, partial curve, poor fit]"},
      {"smiles": "NC(=O)C1CCN(c2cc(-c3ccc4c(c3)OCCCO4)ncn2)CC1", "Potency": "inconclusive: 77.2 µM [inhibitor, partial curve, poor fit]"},
      {"smiles": "CN(C)C(=O)C1CCN(c2nc(-c3ccc(Br)cc3)cs2)CC1", "Potency": "inconclusive: 77.2 µM [inhibitor, partial curve, poor fit]"},
      {"smiles": "NC(=O)C1CCN(c2nc(-c3ccccc3[N+](=O)[O-])cs2)CC1", "Potency": "inactive"},
      {"smiles": "CC(C)Oc1ccc(-c2csc(N3CCC(C(N)=O)CC3)n2)cc1", "Potency": "inactive"},
      {"smiles": "NC(=O)C1CCN(c2nc(-c3cccc(C(F)(F)F)c3)cs2)CC1", "Potency": "inactive"},
      {"smiles": "O=C(O)C1CCN(c2nc(-c3ccc(Br)cc3)cs2)CC1", "Potency": "inconclusive: 77.2 µM [inhibitor, partial curve, poor fit]"},
      {"smiles": "O=C(NCCCc1ccccc1)C1CCN(c2nc(-c3ccc(Br)cc3)cs2)CC1", "Potency": "inconclusive: 30.7 µM [inhibitor, partial curve, poor fit]"},
      {"smiles": "NC(=O)C1CCN(c2ncc(-c3ccc4c(c3)OCCO4)s2)CC1", "Potency": "active: 1.22 µM"},
      {"smiles": "NC(=O)C1CCN(c2nc(-c3cccc(Br)c3)cs2)CC1", "Potency": "inactive"},
      {"smiles": "Cc1ccc(-c2nnc(N3CCC(C(N)=O)CC3)s2)cc1", "Potency": "active: 6.14 µM"},
      {"smiles": "NC(=O)C1CCN(c2ncc(-c3ccc4c(c3)OCCCO4)s2)CC1", "Potency": "active: 0.487 µM"},
      {"smiles": "CC(=O)NC1CCN(c2nc(-c3ccc(Br)cc3)cs2)CC1", "Potency": "inconclusive: 97.2 µM [inhibitor, partial curve, poor fit]"}
    ]}
  ]
}
